Experimental findings from paper PMC5628917 are described below.

Sequences of proteins named here, by UniProt entry; tags and fusion partners are left off. A change or cut given only in a name is not applied to a line headed by its entry.
UniProt Q05A36: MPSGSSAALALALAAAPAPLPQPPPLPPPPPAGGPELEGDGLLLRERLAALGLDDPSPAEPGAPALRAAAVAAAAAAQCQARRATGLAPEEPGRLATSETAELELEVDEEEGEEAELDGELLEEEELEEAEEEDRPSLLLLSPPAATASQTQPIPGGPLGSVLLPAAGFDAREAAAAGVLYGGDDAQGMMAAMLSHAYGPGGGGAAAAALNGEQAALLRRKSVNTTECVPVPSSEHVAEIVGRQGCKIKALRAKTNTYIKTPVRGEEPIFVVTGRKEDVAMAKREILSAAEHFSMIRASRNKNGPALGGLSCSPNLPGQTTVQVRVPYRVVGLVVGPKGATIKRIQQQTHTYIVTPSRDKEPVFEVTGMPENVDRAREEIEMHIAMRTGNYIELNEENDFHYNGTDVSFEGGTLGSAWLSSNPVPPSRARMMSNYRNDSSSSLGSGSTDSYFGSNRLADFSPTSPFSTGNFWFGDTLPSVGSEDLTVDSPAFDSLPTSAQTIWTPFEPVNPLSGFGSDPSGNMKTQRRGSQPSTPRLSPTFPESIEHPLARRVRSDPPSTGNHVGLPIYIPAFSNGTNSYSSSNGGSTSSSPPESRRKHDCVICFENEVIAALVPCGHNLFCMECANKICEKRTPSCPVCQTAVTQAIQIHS
UniProt P11940: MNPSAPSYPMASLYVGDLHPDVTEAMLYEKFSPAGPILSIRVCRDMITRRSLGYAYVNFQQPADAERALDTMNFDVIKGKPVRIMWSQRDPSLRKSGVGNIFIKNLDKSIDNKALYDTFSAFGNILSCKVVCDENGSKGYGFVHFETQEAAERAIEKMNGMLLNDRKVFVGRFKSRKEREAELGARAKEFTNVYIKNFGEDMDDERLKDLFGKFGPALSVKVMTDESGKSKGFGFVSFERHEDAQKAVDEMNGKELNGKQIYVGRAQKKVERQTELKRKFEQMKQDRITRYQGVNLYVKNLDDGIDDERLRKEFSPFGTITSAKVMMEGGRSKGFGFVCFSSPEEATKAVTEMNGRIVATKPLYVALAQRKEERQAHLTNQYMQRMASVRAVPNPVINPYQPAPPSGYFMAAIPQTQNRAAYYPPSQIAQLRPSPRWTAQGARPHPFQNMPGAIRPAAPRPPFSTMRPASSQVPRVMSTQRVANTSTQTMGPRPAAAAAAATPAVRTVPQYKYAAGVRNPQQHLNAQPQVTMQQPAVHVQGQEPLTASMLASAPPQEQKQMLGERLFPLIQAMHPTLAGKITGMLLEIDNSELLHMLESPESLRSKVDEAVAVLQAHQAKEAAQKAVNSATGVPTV

The target in the assay is Flag-tagged mouse MEX3C-2 (mouse) (UniProt Q05A36). The assay can be described thus: affinity purification with mass spectrometry; MEX3C-2-Flag transiently expressed in HEK293; NP-40 buffer lysate, anti-Flag agarose beads, elution with 0.1 M glycine HCl pH 2.5; bands unique to the MEX3C-2-Flag preparation cut from a Coomassie gel, LC-MS/MS.

Results are given in words; binding and its absence hold for the method and conditions named. Binding seen in cells or lysates may run through a third protein. Here binding means that the protein was enriched with, or labelled near, the bait; the list need not be complete.

PABPC1 (from UniProt P11940 1-636): the binding entry is reported as “binds”.
